In publication PMC7062751:
These are yes or no findings as the source states them, for the method shown. Binding seen in cells or lysates may run through a third protein. Here binding means that the protein was enriched with, or labelled near, the bait; the list need not be complete.

Chains of the proteins cited; added tags and fusions are not shown.
UniProt Q9Y6I9: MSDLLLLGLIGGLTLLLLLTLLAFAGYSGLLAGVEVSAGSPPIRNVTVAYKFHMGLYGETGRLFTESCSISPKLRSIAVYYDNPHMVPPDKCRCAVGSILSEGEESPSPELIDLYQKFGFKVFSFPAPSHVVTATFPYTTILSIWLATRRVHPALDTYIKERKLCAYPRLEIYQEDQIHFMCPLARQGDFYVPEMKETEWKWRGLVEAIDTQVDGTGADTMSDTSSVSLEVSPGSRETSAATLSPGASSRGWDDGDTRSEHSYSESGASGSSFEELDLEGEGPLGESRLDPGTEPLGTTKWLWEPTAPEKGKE
UniProt P12004: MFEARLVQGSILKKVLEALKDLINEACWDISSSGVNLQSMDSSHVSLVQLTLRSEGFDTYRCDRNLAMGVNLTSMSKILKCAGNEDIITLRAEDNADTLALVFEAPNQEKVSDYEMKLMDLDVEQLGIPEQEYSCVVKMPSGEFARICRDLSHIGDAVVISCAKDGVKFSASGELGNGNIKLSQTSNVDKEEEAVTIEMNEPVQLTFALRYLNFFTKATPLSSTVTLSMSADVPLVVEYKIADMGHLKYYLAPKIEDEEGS
UniProt P11387: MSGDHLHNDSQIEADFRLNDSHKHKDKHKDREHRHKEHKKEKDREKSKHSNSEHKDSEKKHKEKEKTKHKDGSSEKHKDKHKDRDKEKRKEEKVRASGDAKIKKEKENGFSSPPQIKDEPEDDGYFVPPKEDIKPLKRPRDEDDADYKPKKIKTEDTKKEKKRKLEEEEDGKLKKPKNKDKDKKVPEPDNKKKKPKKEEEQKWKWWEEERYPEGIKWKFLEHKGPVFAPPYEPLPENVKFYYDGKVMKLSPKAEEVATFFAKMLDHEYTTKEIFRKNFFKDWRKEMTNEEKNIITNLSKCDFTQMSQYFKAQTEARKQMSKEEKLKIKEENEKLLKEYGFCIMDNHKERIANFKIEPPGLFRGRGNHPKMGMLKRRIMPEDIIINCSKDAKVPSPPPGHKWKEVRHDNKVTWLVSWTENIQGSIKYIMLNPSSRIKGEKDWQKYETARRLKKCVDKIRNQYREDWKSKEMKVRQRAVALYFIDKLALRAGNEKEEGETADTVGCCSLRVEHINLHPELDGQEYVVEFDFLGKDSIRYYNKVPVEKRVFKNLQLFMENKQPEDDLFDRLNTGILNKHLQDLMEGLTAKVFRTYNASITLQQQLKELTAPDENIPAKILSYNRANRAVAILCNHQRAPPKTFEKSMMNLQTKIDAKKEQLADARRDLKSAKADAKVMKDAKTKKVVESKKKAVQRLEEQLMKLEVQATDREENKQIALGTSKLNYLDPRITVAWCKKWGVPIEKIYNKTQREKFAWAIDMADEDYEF

Target: TEX264-SSH (UniProt Q9Y6I9)
Experiment: affinity purification with mass spectrometry; Strep-Tactin Sepharose on Benzonase-digested chromatin of doxycycline-induced TEX264-SSH Flp-In TRex HEK293 cells; biotin elution; LC-MS/MS

binding	Substance
binds	PCNA (endogenous) (from UniProt P12004 1-261)
binds	Topoisomerase 1 (endogenous TOP1) (from UniProt P11387 1-765)
binds	p97 ATPase (endogenous) (from UniProt P55072 1-806)
